This note sets out measurements from article PMC3355077.

Protein sequences, listed by entry. Tags and fused reporters are not part of them. Lines headed by an entry give the natural chain unless they say otherwise; changes in a name come on top. Chains listed by the source or under a name are the forms on record and can include a tag or linker.
Psip1/p52 (endogenous) (mouse (endogenous in NIH 3T3 and MEFs)) (Q99JF8, form named): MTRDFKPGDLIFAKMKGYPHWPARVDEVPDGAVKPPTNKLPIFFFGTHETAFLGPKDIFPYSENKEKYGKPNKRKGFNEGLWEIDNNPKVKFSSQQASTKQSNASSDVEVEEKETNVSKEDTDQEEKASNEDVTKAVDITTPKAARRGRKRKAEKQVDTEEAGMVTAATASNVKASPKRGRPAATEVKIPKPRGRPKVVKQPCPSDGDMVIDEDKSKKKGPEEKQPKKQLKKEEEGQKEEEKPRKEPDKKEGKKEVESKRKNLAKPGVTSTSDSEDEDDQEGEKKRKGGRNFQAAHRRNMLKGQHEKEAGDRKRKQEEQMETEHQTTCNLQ
UniProt Q62167: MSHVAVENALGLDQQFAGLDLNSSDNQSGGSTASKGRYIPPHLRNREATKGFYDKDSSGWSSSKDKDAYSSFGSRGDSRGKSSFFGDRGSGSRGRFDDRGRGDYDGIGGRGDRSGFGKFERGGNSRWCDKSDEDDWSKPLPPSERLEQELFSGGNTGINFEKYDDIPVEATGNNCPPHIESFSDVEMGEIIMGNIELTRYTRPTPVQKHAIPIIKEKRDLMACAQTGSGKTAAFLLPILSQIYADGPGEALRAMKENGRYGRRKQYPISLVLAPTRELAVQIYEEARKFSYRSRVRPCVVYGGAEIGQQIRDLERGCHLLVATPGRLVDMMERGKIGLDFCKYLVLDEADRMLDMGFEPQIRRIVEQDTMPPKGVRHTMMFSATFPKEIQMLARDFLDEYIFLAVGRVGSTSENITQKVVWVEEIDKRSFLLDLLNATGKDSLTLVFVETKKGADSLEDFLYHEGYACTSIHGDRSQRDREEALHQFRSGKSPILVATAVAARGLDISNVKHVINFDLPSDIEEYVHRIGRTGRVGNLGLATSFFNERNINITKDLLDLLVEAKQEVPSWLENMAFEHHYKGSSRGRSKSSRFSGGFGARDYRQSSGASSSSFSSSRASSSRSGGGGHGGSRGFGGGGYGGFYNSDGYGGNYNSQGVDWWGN
UniProt Q8K4L0: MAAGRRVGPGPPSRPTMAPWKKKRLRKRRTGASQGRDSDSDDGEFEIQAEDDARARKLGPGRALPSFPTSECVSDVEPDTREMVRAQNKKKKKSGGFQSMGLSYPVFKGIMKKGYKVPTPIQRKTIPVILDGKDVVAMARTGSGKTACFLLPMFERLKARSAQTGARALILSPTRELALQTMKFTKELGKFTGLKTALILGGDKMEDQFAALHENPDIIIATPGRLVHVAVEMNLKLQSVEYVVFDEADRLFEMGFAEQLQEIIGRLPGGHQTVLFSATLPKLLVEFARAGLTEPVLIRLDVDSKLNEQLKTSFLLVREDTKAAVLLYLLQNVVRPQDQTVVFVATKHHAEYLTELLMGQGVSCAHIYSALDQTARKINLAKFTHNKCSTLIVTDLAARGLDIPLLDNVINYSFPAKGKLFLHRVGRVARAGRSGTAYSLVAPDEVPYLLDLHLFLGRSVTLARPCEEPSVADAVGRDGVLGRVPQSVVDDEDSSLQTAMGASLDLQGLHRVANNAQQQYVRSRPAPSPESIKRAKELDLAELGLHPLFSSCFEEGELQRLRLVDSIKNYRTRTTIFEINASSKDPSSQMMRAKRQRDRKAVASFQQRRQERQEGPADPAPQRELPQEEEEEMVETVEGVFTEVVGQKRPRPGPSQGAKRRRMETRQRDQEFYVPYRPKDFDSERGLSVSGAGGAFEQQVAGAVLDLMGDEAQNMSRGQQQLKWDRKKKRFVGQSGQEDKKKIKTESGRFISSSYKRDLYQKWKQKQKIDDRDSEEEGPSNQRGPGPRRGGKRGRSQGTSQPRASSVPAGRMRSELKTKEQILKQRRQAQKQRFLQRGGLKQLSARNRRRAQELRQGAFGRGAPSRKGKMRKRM
UniProt O35286: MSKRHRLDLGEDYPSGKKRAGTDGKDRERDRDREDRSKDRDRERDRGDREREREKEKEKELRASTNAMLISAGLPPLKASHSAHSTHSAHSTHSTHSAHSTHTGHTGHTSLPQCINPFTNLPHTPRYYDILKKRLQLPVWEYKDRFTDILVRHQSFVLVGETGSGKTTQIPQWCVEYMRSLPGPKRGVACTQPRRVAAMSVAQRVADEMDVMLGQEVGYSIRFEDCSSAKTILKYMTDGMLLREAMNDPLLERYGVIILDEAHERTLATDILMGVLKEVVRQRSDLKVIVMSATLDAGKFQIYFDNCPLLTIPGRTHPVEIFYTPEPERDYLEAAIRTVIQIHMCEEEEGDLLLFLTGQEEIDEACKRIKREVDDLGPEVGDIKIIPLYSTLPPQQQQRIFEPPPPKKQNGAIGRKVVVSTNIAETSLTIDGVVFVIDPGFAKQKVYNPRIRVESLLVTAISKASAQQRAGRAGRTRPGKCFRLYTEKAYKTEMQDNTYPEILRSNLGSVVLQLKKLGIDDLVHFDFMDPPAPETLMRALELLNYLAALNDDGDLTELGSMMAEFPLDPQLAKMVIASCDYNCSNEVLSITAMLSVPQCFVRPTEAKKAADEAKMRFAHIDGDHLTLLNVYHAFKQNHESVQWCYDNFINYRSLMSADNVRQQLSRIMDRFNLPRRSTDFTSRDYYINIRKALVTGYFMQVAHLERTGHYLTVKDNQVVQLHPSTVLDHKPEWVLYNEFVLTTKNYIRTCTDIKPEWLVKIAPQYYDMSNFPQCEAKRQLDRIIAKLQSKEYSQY
UniProt A2AR02: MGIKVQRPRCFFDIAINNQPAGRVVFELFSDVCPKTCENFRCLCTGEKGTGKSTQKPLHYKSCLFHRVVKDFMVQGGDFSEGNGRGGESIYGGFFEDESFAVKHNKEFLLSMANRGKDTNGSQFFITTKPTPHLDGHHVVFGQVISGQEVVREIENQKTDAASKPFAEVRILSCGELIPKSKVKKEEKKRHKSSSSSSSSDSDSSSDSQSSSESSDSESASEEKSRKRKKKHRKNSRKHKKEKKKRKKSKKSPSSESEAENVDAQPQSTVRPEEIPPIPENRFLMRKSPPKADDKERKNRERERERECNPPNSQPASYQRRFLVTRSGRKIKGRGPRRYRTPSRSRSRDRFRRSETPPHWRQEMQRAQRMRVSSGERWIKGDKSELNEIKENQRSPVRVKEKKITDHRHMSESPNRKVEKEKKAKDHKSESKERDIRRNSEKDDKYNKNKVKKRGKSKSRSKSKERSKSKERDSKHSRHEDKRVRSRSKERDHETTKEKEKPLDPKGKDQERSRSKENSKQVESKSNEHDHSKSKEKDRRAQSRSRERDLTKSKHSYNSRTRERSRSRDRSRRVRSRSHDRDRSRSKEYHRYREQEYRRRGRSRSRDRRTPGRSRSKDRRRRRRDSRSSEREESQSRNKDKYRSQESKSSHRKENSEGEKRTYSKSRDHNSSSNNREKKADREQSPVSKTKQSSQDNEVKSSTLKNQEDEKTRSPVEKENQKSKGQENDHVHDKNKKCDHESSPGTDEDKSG
UniProt Q8BTI8: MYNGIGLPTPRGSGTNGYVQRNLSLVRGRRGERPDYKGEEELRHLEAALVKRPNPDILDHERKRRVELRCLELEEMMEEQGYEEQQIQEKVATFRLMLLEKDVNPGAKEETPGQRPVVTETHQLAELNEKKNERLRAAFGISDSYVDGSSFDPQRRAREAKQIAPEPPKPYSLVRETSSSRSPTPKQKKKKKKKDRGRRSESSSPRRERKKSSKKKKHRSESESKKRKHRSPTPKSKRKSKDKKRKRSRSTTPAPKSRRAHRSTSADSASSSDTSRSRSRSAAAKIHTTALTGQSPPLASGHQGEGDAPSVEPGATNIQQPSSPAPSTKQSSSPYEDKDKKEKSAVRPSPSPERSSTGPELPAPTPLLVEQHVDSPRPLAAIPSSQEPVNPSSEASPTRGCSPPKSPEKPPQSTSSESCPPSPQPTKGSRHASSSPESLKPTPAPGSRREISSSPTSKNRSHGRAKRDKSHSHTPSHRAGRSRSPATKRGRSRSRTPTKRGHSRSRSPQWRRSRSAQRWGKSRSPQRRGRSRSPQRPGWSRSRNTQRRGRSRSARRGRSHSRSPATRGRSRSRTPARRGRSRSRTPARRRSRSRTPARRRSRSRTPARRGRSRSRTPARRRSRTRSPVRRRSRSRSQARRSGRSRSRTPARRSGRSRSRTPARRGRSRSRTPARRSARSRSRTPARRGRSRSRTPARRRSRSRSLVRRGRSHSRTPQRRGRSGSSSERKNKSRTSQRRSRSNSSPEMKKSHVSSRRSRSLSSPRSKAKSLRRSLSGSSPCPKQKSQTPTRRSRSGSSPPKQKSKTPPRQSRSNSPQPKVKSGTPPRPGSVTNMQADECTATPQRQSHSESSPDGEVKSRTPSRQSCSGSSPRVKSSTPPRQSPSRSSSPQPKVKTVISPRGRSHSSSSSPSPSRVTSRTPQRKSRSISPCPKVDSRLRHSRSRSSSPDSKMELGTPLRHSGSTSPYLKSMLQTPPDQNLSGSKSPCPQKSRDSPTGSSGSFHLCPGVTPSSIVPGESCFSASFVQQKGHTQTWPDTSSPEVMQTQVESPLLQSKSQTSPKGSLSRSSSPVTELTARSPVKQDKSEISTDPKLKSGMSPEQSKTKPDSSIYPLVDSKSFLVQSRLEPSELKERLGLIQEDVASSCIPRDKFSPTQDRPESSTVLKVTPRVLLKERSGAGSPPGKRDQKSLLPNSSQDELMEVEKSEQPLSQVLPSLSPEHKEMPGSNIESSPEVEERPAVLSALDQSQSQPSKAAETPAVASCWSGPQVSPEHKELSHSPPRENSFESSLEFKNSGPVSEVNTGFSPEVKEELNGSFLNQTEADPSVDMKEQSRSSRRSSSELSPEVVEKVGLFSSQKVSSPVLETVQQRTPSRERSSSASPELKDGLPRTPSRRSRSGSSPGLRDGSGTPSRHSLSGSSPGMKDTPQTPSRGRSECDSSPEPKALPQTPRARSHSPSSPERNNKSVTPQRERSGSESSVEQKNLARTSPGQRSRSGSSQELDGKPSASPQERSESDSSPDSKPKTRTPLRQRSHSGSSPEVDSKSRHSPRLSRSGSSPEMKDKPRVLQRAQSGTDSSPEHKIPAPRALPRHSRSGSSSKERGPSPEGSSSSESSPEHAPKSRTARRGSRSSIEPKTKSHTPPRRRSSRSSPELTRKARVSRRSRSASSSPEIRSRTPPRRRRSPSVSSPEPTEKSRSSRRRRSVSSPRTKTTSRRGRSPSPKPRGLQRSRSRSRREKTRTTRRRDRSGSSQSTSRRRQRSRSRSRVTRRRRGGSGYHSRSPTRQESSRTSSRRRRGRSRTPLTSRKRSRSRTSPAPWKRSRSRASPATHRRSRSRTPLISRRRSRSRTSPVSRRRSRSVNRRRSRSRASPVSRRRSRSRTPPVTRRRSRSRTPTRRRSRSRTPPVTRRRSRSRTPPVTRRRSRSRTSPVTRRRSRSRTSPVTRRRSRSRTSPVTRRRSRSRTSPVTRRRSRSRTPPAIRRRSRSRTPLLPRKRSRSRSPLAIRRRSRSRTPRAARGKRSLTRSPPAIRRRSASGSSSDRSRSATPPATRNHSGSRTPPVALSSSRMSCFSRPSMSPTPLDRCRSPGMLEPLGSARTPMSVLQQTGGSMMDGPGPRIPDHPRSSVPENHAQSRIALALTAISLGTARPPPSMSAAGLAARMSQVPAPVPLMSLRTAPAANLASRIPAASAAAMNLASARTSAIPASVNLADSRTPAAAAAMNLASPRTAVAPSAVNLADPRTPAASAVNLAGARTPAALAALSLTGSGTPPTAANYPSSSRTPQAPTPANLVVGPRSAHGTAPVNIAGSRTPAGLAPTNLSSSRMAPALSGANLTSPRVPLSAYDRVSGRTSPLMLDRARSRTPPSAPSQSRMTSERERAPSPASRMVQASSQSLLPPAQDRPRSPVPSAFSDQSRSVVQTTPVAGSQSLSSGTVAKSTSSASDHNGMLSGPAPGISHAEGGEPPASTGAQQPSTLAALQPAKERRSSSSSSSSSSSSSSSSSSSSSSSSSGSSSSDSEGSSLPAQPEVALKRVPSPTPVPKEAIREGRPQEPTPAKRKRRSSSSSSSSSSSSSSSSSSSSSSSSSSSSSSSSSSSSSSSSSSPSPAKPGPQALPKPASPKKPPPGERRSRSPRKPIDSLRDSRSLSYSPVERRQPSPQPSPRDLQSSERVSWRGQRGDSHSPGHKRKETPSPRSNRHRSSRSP
UniProt Q9WV02: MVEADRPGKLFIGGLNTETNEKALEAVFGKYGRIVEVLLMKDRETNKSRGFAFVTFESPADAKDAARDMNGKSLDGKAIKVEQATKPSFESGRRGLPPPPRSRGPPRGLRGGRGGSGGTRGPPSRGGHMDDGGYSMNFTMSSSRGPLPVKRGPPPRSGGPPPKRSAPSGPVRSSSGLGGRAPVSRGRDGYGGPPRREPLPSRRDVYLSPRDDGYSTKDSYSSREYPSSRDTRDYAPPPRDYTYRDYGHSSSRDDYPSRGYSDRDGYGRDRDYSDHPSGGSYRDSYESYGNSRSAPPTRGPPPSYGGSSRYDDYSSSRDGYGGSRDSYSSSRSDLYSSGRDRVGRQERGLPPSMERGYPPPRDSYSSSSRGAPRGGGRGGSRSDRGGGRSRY

These are yes or no findings as the source states them, for the method shown. Binding seen in cells or lysates may run through a third protein. These calls come from enrichment with a bait or labelling near it, and not all partners need be listed.

Assay [1] addresses Psip1/p52 (endogenous) (mouse (endogenous in NIH 3T3 and MEFs)) (UniProt Q99JF8). Description: affinity purification with mass spectrometry; A300-847 IP from NIH 3T3 nuclear extract, washes with 200 mM KCl; gel bands analysed by MS/MS (Mascot).
Assay [2] shares this target. Briefly: affinity purification with mass spectrometry; A300-847 IP from wild-type MEF nuclear extract; gel region of 25-40 kDa analysed by mass spectrometry.

DDX3X (from UniProt Q62167 1-662): the binding entry in assay [1] is reported as “binds”. Turning to DDX3Y (from UniProt Q62095 1-658), the binding entry in assay [1] was “binds”.

Take DDX10 (from UniProt Q80Y44 1-875): the binding entry in assay [1] was “binds”.

For the substance DDX41 (from UniProt Q91VN6 1-622), in assay [1], the binding result was “binds”. For the substance DDX54 (from UniProt Q8K4L0 1-874), the binding entry in assay [1] is “binds”.

On to DHX15 (from UniProt O35286 1-795), for which, in assay [1], the binding entry was “binds”. Regarding DHX 9 (from UniProt O70133 1-1380), the binding entry in assay [1] is recorded as “binds”. In the case of FXR1 (from UniProt Q61584 1-677), in assay [1], the binding result is “binds”. On to NOC2L (from UniProt Q9WV70 1-747), for which the binding result in assay [1] is “binds”. Still for that read-out and setting: to Pinin (from UniProt O35691 1-725) belongs “binds”. Take Ppig (from UniProt A2AR02 1-752): in assay [1], the binding entry is listed as “binds”. As to Prpf4b (from UniProt Q61136 1-1007), the binding entry in assay [1] was “binds”. As to RRP5 (from UniProt Q6NS46 1-1862), the binding entry in assay [1] was “binds”. For SRp38 (from UniProt Q9R0U0-1 1-262), in assay [1], the binding entry was “binds”. Consider Safb2 (from UniProt Q80YR5 1-991), for which the binding entry in assay [1] is listed as “binds”. As to Srrm2 (from UniProt Q8BTI8 1-2703), in assay [1], the binding entry is given as “binds”. For “Srsf1 (endogenous) (from UniProt Q6PDM2 1-248)”, the binding entry in assay [1] and in assay [2] was “binds” in each case. As to U5-200KD (from UniProt Q6P4T2 1-2136), the binding result in assay [1] was “binds”. For the substance hnRNPg (from UniProt Q9WV02 1-391), the binding result in assay [1] is recorded as “binds”.

hnRNPk (from UniProt P61979 1-463): the binding entry in assay [1] is on record as “binds”. As for hnRNPu like (from UniProt Q00PI9 1-745), the binding result in assay [1] was “binds”.
